Assay [1] concerns the target T1, TRIM26-FL-Flag (Tripartite motif containing 26, full length, Flag-tagged) (human) (UniProt Q12899).
T1 sequence: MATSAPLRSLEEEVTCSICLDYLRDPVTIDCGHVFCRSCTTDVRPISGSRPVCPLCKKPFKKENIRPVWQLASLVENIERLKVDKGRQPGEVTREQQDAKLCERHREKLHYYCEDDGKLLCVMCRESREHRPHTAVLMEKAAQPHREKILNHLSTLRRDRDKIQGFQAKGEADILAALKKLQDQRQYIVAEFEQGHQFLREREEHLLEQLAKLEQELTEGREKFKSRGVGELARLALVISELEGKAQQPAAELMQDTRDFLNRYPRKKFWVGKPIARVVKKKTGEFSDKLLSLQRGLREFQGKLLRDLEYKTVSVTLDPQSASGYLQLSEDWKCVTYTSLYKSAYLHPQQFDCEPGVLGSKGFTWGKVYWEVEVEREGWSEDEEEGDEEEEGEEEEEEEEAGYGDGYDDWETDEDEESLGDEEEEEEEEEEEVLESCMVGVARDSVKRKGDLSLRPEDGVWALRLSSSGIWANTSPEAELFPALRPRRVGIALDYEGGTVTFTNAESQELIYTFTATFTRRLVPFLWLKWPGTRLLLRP
Put plainly: co-IP; L02 cells transfected with TRIM26-Flag or CEBPD-HA plasmids; immunoblotting probed with anti-HA or anti-Flag antibody. For orientation: A western blot detects proteins with antibodies after separation by electrophoresis.

The target in assay [2] is T2, TRIM26-HA-GST (not stated (human or mouse cDNA cloned)) (UniProt Q12899).
T2 sequence: T1 sequence
Put plainly: pull-down; MagneGST Pull-Down System; GST fusion from Rosetta-DE3 on GST particles (1 h, 4 degrees Celsius), then incubated with the tagged partner for 5 h; eluted, western blot; purified GST as control; both purified.

No constants are given. Whether binding was seen depends on the method and setting. For some assays here: In cells and extracts the contact can be indirect. Some results given as binding are weak or reduced against the parent protein; the word gives no strength. Tags and fused reporters may be left off the sequences shown.

B1: CEBPD-FL-HA (CCAAT/enhancer binding protein delta, full length, HA-tagged) (protein, UniProt P49716 1-269)
chain: MSAALFSLDGPARGAPWPAEPAPFYEPGRAGKPGRGAEPGALGEPGAAAPAMYDDESAIDFSAYIDSMAAVPTLELCHDELFADLFNSNHKAGGAGPLELLPGGPARPLGPGPAAPRLLKREPDWGDGDAPGSLLPAQVAACAQTVVSLAAAGQPTPPTSPEPPRSSPRQTPAPGPAREKSAGKRGPDRGSPEYRQRRERNNIAVRKSRDKAKRRNQEMQQKLVELSAENEKLHQRVEQLTRDLAGLRQFFKQLPSPPFLPAAGTADCR
In the case of B1, the binding entry in assay [1] was “binds”.

B2: CEBPD-His (protein, UniProt P49716 1-269)
chain: B1 chain
Regarding B2, in assay [2], the binding entry is “binds”.

Values taken from publication PMC10567751.
